{
  "source": "the supplement of paper PMC4683952",
  "note": "Some of the results follow. How the calls were made is not given here. Repeats in this data set agree poorly, so a single value says little.",
  "data": [
    {"test_system": "Lgr5 (MarsCy1-Lgr5-EGFP, U2OS)", "assay": "cell-surface Lgr5 expression (SCi1 fluorescence, background-subtracted) relative to WT DMSO (fold of DMSO control); higher = more Lgr5 at the plasma membrane", "conditions": "U2OS MarsCy1-Lgr5-EGFP stable; treatment time: overnight; library: Kinase Gold; 20 µM", "method": "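U2OS cells stably expressing MarsCy1-Lgr5-EGFP in 384-well plates were incubated overnight with single-dose compounds. Cell-surface Lgr5 was stained with SCi1 and scanned at 700 nm on a LI-COR Odyssey. Intensity was background-subtracted (parental U2OS) and expressed relative to WT DMSO wells.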", "values": [
      {"compound": "Cc1ccc2c(n1)sc1c(-c3ccccc3)c(C#N)c(N)nc12", "cell-surface Lgr5 expression": "inactive: 0.702"},
      {"compound": "Cc1ccc2cccc(NC(=S)NC(=O)c3ccn(C)n3)c2n1", "cell-surface Lgr5 expression": "inactive: 0.902"},
      {"compound": "O=C(O)/C(=C\\c1ccncc1)NC(=O)c1ccccc1", "cell-surface Lgr5 expression": "inactive: 0.987"},
      {"compound": "Cc1nnc(NC(=O)c2c(O)c3ccccc3n(C)c2=O)s1", "cell-surface Lgr5 expression": "inactive: 0.752"},
      {"compound": "Nc1c(C(=O)N2CCOCC2)ccc2c1C(=O)c1ccccc1C2=O", "cell-surface Lgr5 expression": "inactive: 0.927"},
      {"compound": "COc1ccc(NC(=O)C(=O)NNC(=O)c2cccs2)cc1", "cell-surface Lgr5 expression": "inactive: 0.818"},
      {"compound": "COc1ccc2oc(=O)c(C(=O)NNC(=O)c3ccncc3)cc2c1", "cell-surface Lgr5 expression": "inactive: 0.832"},
      {"compound": "CC1(CC(=O)NNC(=S)Nc2ccccc2)OCCO1", "cell-surface Lgr5 expression": "inactive: 0.856"},
      {"compound": "Cc1nc2ccccc2c(=O)n1NC(=S)Nc1ccccc1", "cell-surface Lgr5 expression": "inactive: 0.75"},
      {"compound": "CC(C)(C)NC(=O)C(=O)NNC(=O)c1ccco1", "cell-surface Lgr5 expression": "inactive: 0.557"},
      {"compound": "O=C(Nc1ccc2c(c1)OCCO2)c1ccc(Cl)cc1", "cell-surface Lgr5 expression": "inactive: 1.05"},
      {"compound": "CCOC(=O)c1c(CNC)n(C)c2cc(Br)c(O)cc12", "cell-surface Lgr5 expression": "inactive: 1.12"},
      {"compound": "O=C(/C=C/c1ccco1)NC(=S)Nc1ccccc1Cl", "cell-surface Lgr5 expression": "inactive: 0.945"},
      {"compound": "CCn1c(=O)c(C(=O)Nc2cccc(F)c2)c(O)c2ccccc21", "cell-surface Lgr5 expression": "inactive: 0.886"},
      {"compound": "CC(=O)N/C(N)=N/c1nc(C)c2ccc(C)cc2n1", "cell-surface Lgr5 expression": "inactive: 0.937"},
      {"compound": "O=c1oc2ccccc2c(Nc2ccccc2O)c1[N+](=O)[O-]", "cell-surface Lgr5 expression": "inactive: 0.719"},
      {"compound": "O=C(NNC(=O)c1cccnc1)Nc1ccccc1", "cell-surface Lgr5 expression": "inactive: 0.894"},
      {"compound": "CC(=O)Nc1ccc(/C=C2/SC(=O)NC2=O)cc1", "cell-surface Lgr5 expression": "inactive: 0.822"}
    ]}
  ]
}
